US20020150993A1 (Genentech, published 2002)
These are yes or no findings as the source states them, for the method shown. In cells and extracts the contact can be indirect. Some entries that bind do so weakly or less than the wild type.

Legend:
[1] = biological target: soluble DNA19355 polypeptide (ECD, His10-tagged, 125I-labeled) (human); assay: co-precipitation with protein A-sepharose, SDS-PAGE, autoradiography
[2] = biological target: soluble DNA19355 polypeptide (ECD, His10-tagged, 125I-labeled) (human); assay: summary of the co-precipitation and FACS assays

B1: PRO364-IgG (PRO364 extracellular domain immunoadhesin) (Fc fusion)
chain: QRPTGGPGCGPGRLLLGTGTDARCCRVHTTRCCRDYPGEECCSEWDCMCVQPEFHCGDPCCTTCRHHPCPPGQGVQSQGKFSFGFQCIDCASGTFSGGHEGHCKPWTDCTQFGFLTVFPGNKTHNAVCVPGSPPAE
notes: Expressed in insect cells with Baculovirus; also called PRO364 immunoadhesin; PRO364 ECD C-terminus IgG-Fc tagged form; not shown: IgG Fc fused at the C-terminus
binding [1]: binds | binding [2]: binds
